From US6451800B1, “Phenylpiperazine derivatives as integrin αvβ3 antagonists” (Meiji Seika Kaisha, Ltd., priority 1998, dated 2002)
For at least one compound, name, drawing or mass did not settle the structure. Some compounds share one wording; it may come from a single statement.

Chains of the proteins cited; added tags and fusions are not shown. Residues count along the entry.
UniProt P05106, 27-788: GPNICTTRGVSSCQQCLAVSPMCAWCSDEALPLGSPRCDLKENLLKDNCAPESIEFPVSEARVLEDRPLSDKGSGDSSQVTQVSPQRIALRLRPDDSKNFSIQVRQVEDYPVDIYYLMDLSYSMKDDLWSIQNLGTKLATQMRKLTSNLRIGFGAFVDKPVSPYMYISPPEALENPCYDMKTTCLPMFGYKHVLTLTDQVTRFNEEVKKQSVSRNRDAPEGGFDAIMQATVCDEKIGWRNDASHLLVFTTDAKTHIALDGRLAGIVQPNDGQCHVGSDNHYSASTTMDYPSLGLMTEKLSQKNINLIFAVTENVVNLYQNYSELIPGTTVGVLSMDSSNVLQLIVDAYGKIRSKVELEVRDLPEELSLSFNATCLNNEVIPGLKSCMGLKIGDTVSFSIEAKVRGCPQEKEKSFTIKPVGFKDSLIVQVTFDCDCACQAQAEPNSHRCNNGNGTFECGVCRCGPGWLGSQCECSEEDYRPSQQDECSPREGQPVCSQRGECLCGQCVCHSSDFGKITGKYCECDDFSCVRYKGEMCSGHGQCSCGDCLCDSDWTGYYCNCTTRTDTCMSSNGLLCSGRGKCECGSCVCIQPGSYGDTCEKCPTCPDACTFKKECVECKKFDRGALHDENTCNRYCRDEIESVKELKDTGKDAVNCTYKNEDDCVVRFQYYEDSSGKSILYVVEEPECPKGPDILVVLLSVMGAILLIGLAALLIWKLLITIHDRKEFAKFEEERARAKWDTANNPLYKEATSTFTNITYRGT
UniProt P06756, 891-1048 partner limits assumed: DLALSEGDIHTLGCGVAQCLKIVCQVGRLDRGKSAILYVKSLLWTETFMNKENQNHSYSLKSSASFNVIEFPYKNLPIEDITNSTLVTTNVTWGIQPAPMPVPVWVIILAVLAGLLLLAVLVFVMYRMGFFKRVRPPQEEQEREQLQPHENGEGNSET
UniProt P06756, 31-889 limits assumed: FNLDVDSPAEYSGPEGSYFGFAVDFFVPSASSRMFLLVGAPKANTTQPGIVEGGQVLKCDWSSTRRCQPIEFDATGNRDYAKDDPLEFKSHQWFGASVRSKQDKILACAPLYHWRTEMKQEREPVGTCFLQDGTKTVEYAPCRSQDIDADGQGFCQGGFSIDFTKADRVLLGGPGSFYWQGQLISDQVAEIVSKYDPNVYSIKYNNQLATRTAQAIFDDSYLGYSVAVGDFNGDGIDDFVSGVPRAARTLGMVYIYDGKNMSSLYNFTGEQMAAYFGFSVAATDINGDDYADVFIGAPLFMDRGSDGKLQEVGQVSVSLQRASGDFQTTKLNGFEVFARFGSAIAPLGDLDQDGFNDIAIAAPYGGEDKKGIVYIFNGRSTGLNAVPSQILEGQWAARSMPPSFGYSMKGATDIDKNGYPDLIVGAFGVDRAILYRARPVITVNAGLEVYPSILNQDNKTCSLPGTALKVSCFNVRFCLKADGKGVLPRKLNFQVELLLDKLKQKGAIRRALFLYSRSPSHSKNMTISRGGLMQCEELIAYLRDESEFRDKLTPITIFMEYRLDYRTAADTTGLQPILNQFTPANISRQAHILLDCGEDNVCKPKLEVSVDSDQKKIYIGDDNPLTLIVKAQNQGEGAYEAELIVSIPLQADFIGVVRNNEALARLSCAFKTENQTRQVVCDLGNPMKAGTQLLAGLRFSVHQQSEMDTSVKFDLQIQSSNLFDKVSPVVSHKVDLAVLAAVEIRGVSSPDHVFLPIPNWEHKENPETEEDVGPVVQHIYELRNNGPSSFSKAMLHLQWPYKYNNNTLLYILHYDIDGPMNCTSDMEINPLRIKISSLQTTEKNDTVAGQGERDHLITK
UniProt P08514, 32-887 limits assumed: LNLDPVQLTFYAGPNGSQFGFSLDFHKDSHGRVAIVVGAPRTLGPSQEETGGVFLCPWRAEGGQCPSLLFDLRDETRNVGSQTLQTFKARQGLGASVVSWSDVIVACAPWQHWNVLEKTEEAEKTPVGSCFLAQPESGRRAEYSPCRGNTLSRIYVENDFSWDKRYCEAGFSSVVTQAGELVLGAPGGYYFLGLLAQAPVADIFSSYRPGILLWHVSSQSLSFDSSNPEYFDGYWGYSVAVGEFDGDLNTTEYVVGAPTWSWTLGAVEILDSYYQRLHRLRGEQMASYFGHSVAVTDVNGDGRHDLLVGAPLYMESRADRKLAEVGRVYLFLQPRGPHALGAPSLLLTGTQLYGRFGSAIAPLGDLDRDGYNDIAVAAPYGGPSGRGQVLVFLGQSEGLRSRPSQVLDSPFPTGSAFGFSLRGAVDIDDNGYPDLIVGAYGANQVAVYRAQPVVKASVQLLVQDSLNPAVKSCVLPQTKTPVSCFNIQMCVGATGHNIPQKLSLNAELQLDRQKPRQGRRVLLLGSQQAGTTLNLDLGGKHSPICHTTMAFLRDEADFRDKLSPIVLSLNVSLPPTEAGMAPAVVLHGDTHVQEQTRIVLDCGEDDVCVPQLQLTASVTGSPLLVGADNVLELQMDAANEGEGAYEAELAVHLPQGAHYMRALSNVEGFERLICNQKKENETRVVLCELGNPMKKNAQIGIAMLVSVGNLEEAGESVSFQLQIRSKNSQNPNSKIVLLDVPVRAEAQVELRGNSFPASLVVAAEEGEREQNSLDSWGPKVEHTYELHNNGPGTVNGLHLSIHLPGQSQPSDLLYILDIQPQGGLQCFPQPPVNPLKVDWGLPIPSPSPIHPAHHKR
UniProt P08514, 891-1039 partner limits assumed: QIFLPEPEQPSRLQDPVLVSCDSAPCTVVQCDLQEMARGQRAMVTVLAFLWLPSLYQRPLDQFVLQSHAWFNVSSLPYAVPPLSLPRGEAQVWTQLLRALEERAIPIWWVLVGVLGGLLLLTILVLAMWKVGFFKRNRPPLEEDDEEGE

Experiments:
[1] = biological target: T1, integrin αvβ3 (vitronectin receptor purified from the human placenta) (Homo sapiens, UniProt P05106+P06756); experiment: αvβ3 binding assay (vitronectin-vitronectin receptor binding assay)
T1 construct: a vitronectin receptor (protein content: 118 μg/ml) purified from the human placenta; from tissue; host or cells: human placenta
Method: Integrin αvβ3 antagonistic activity was measured for the compounds according to the present invention in a vitronectin-vitronectin receptor binding assay system in accordance with the method of Kouns et al. (W. C. Kouns, D. Kirchhofer, P. Hadvary, A. Edenhofer, T. Weller, G. Pfenninger, H. R. Baumgartner, L. K. Jennings and B. Steiner, Blood, 8, 2539-2547 (1992)).
Specifically, a vitronectin receptor (protein content: 118 μg/ml) purified from the human placenta in accordance with the method of Pytela et al. (R. Pytela, M. D. Pierschbacher, S. Argraves, S. Suzuki, and E. Ruoslahti, Method in Enzymology, 144, 475-489 (1987)) was diluted 50 times with TBS (20 mM Tris-HCl, 150 mM NaCl, 1 mM CaCl2, 1 mM MgCl2, pH 7.4), and distributed and coated on wells (50 μl/well) of a plate (Maxisorp, Nunc, 96 well Immuno Plate). The plate was then allowed to stand at 4° C. for 1 day, washed twice with TBS (200 μl/well), and then subjected to blocking with TBS (150 μl/well) containing 1% bovine serum albumin (SIGMA) at 4° C. overnight. After washing twice with TBS (200 μl/well), 50 μl of vitronectin (CALBIOCHEM) adjusted to 0.2 μg/ml by the addition of TBS (TBS-Tween) containing 0.01% Tween-20 was mixed with 50 μl of each test compound adjusted to each concentration in wells, and a reaction was allowed to proceed at room temperature for 4 hr. After the completion of the reaction, the wells were washed five times with TBS-Tween. A solution prepared by diluting anti-vitronectin rabbit antiserum (CHEMICON) 500 times with TBS-Tween was added as a primary antibody in an amount of 50 μl per well, and a reaction was allowed to proceed at room temperature for 1.5 hr. After washing five times with 200 μl/well of TBS-Tween, a peroxidase (POD)-labeled anti-rabbit IgG antibody solution (CAPPEL) diluted 500 times with TBS-Tween was added as a secondary antibody in an amount of 50 μl/well, and a reaction was allowed to proceed at room temperature for 1.5 hr. […] A 0.1 M citric acid buffer (pH 4.3) containing 0.05% NaN3 was added in an amount of 50 μl/well to stop the reaction, followed by the measurement of the absorbance at 415 nm with a microplate reader (MTP 32, Corona Electric) (reference: 675 nm). The total binding was defined as the absorbance after a reaction using 50 μl of TBS-Tween instead of the test compound, and the non-specific binding (100% inhibition) was defined as the absorbance after a reaction using 50 μl of TBS-Tween containing 2×10^−3 M RGDS. The inhibition was calculated by the following equation: [formula]
IC50 was determined from a primary regression line of the logarithm of each concentration of the test compound and the logarithm of (100−inhibition)/inhibition.

GP IIb/IIIa = GP IIb/IIIa (Homo sapiens, UniProt P05106+P08514); experiment: GP IIb/IIIa antagonistic activity (method of Pharmacological Test 2 in WO 94/21599); assay type: binding
Method: (§1) GP IIb/IIIa Antagonistic Activity and Human Platelet Aggregation Inhibitory Activity
GP IIb/IIIa antagonistic activity was measured for the compounds according to the present invention. The measurement of the GP IIb/IIIa antagonistic activity was carried out according to the method described in Pharmacological Test 2 in WO 94/21599.

[2] = test system: human platelet aggregation; experiment: Human platelet aggregation inhibitory activity (method of Pharmacological Test 1 in WO 94/21599); assay type: cell-based
Method: as §1
Human platelet aggregation inhibitory activity was measured for the compounds according to the present invention. The measurement of the human platelet aggregation activity was carried out according to the method described in Pharmacological Test 1 in WO 94/21599.

Compound | integrin αvβ3 antagonistic activity (in words) [1] | GP IIb/IIIa antagonistic activity (in words) (GP IIb/IIIa) | human platelet aggregation inhibition (in words) [2]
O=C(NC[C@H](NS(=O)(=O)c1ccccc1)C(=O)O)c1ccc(N2CCN(C3=NCCCN3)CC2)cc1F [Example 56, (2S)-Benzenesulfonylamino-3-[2-fluoro-4-{4-(1,4,5,6-tetrahydropyrimidin-2-yl)-piperazin-1-yl}-benzoylamino]-propionic Acid] | high integrin αvβ3 antagonistic activity | extremely high GP IIb/IIIa antagonistic activity | 
O=C(NC[C@H](NS(=O)(=O)c1ccccc1)C(=O)O)c1ccc(N2CCN(C3=NCCCN3)CC2)c(Cl)c1 [Example 59, (2S)-Benzenesulfonylamino-3-[3-chloro-4-{4-(1,4,5,6-tetrahydropyrimidin-2-yl)-piperazin-1-yl}-benzoylamino]-propionic Acid] | high integrin αvβ3 antagonistic activity | extremely high GP IIb/IIIa antagonistic activity | 
O=C(NC[C@H](NS(=O)(=O)c1ccccc1)C(=O)O)c1ccc(N2CCN(C3=NCCCN3)CC2)cc1Cl [Example 62, (2S)-Benzenesulfonylamino-3-[2-chloro-4-{4-(1,4,5,6-tetrahydropyrimidin-2-yl)-piperazin-1-yl}-benzoylamino]-propionic Acid] | high integrin αvβ3 antagonistic activity | extremely high GP IIb/IIIa antagonistic activity | 
Cc1cc(C)c(S(=O)(=O)N[C@@H](CNC(=O)c2ccc(N3CCN(C4=NCCCN4)CC3)c(F)c2)C(=O)O)c(C)c1 [Example 83, 3-[3-Fluoro-4-{4-(1,4,5,6-tetrahydropyrimidin-2-yl)-piperazin-1-yl}-benzoylamino]-(2S)-(2,4,6-trimethyl-benzenesulfonylamino)-propionic Acid] | high integrin αvβ3 antagonistic activity | extremely high GP IIb/IIIa antagonistic activity | very strongly inhibited human platelet aggregation
